Results are given in words; binding and its absence hold for the method and conditions named. In cells and extracts the contact can be indirect. Some binding calls cover weakened binding; strength is not graded here.

The chains behind the UniProt entries cited, without tags or fusion partners.
UniProt P63092: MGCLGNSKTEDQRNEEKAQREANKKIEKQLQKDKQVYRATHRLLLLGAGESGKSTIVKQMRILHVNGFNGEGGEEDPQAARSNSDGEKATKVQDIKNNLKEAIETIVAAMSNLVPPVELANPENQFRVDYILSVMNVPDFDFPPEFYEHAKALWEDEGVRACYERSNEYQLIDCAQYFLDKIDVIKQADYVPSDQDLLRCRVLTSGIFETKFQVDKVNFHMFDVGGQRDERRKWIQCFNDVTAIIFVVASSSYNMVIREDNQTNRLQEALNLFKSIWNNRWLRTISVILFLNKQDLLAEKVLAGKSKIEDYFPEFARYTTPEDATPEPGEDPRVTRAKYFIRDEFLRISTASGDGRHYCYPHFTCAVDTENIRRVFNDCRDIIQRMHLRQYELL
UniProt P40763: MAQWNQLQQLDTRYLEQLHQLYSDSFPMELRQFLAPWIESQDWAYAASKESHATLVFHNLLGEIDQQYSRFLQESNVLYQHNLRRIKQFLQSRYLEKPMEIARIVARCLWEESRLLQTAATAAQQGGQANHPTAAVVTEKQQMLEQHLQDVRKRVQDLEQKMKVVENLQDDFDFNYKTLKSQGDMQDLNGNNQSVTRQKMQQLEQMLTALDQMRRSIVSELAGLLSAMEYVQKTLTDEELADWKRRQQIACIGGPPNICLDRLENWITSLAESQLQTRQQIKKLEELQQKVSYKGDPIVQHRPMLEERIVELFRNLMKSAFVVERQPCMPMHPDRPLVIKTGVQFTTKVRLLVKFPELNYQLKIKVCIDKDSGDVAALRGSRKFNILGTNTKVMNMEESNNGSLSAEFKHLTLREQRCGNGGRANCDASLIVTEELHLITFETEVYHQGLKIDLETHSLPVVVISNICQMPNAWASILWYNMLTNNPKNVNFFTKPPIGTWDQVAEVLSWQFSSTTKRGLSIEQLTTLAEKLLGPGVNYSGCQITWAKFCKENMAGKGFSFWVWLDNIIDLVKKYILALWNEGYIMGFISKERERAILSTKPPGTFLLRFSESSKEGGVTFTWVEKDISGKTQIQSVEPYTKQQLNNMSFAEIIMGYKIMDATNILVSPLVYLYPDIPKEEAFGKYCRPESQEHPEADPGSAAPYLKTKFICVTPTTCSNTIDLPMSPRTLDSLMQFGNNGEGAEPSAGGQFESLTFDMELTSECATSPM

For assay [1], the target named is Myc-GNAS (from pCMV-Myc-GNAS), exogenous (UniProt P63092). In words: co-IP; HepG2 cells transfected with pCMV-myc-GNAS and pCMV-flag-STAT3 for 24 h; anti-Flag or anti-Myc at 4 °C overnight, protein A-agarose beads, Western blotting. On the technique in general: Immunoblotting shows a protein as a band on a membrane.
In assay [2] the target is G-protein alpha-subunit (GNAS), endogenous (human (endogenous in HepG2)) (UniProt P63092). In words: co-IP; endogenous proteins from HepG2 lysate (also GNAS knockout HepG2 cells; with or without LPS 5 μg/ml for the indicated hours); antibody at 4 °C overnight, protein A-agarose beads, Western blotting.

Take “Flag-STAT3 (from pCMV-Flag-STAT3), exogenous (from UniProt P40763 1-770)”: the binding entry in assay [1] is on record as “binds”.

For “signal transducer and activator of transcription 3 (STAT3), endogenous (from UniProt P40763 1-770)”, the binding entry in assay [2] is reported as “binds”.

(Values after publication PMC7038622.)
